Values quoted from earlier work as cited in patent US20020122815A1, “Compositions and methods of carbohydrate dosing” (priority 2001, published 2002).
Some entries share one result that the patent states for a list of compounds.

System: serum glucose levels
Conditions: in vivo

## O=C(CO)[C@@H](O)[C@H](O)[C@H](O)CO [fructose]
  Glycemic Index class (high/low GI food): low (A low GI food, having a GI index of about less than 50)
